The test system of this test is L1210 leukemia ip in BDF1 mice, survival T/C. Nature of the test: NCI In Vivo Anticancer Drug Screen. Data for tumor model L1210 Leukemia (intraperitoneal) in B6D2F1 (BDF1) mice. Conditions: T/C endpoint: mean survival time, higher T/C = longer survival.
Setting [1] is: dose: 200.0 mg/kg/injection, schedule: Q01DX009 (ip), vehicle: Klucel (hydroxypropylcellulose) (HPC).
Setting [2] is: dose: 400.0 mg/kg/injection, schedule: Q01DX009 (ip), vehicle: Klucel (hydroxypropylcellulose) (HPC).
[3] abbreviates: dose: 400.0 mg/kg/injection, schedule: Q01DX001 (ip), vehicle: saline.
[4] abbreviates: dose: 400.0 mg/kg/injection, schedule: Q04DX002 (ip), vehicle: saline with Tween-80.
Setting [5] is: dose: 200.0 mg/kg/injection, schedule: Q01DX001 (ip), vehicle: saline.
The mark [6] stands for this setting: dose: 100.0 mg/kg/injection, schedule: Q04DX003 (ip), vehicle: water.
Where [7] appears, read: dose: 200.0 mg/kg/injection, schedule: Q04DX003 (ip), vehicle: water.
The mark [8] stands for this setting: dose: 400.0 mg/kg/injection, schedule: Q04DX003 (ip), vehicle: water.
Where [9] appears, read: dose: 100.0 mg/kg/injection, schedule: Q04DX002 (ip), vehicle: Klucel (hydroxypropylcellulose) (HPC).
Where [10] appears, read: dose: 200.0 mg/kg/injection, schedule: Q04DX002 (ip), vehicle: Klucel (hydroxypropylcellulose) (HPC).
Setting [11] is: dose: 400.0 mg/kg/injection, schedule: Q04DX002 (ip), vehicle: Klucel (hydroxypropylcellulose) (HPC).
Where [12] appears, read: dose: 400.0 mg/kg/injection, schedule: Q04DX003 (ip), vehicle: saline with Tween-80.
[13] abbreviates: dose: 300.0 mg/kg/injection, schedule: Q01DX001 (ip), vehicle: saline.
The mark [14] stands for this setting: dose: 400.0 mg/kg/injection, schedule: Q01DX009 (ip), vehicle: saline with Tween-80.

The list is a part of this screen's results and no random one: it is rich in T/C values a quarter to a half above the control, in often repeated tests (any T/C) and in doses without a T/C. Other doses and runs of a compound stand elsewhere. T/C is the treated group as % of the vehicle group. Some doses have a count of surviving animals in place of a T/C: the source holds a T/C of zero for them, seemingly a mark for toxic or unscored doses. Some survivor counts are full or nearly so, which does not show that the dose was tolerated: survival well below the control is almost never listed, so the zero probably covers shortened survival too. Counts of survivors are from the toxicity check (mostly the fifth day) where no day follows; animals may have died later. Schedules are NCI's codes, taken here to give the interval after Q, in days (D) or hours (H), and the number of doses after X. Where survival is the endpoint, the PubChem record calls one and a half times the control and up active, and a quarter to a half above the control has no call in these data; cut-offs in other NCI protocols can differ. Some schedule codes hold Z or #, which are not explained here.

As for `COc1cc(OC)cc(C(O)C(C)NC(C)C)c1` (stereo not drawn), the survivor count runs as follows: under setting [1], 1 of 6; (dose: 200.0 mg/kg/injection, schedule: Q04DX003 (ip), vehicle: saline) 2 of 4; under setting [2], 1 of 6.

As for `Clc1ccc(SCN(CSc2ccc(Cl)cc2)Cc2ccccc2)cc1`, the survivor count under setting [3] is recorded as 6 of 6.

In the case of `CC(=O)[O][Pb]([O]C(C)=O)([c]1ccccc1)[c]1ccccc1`, the survivor count under setting [4] is recorded as 2 of 3.

In the case of `Brc1ccc(C[n+]2ccccc2)cc1`, the survivor count by setting is: (dose: 75.0 mg/kg/injection, schedule: Q01DX009 (ip), vehicle: saline) 0 of 6; (dose: 100.0 mg/kg/injection, schedule: Q01DX001 (ip), vehicle: saline) 0 of 6; (dose: 115.0 mg/kg/injection, schedule: Q04DX003 (ip), vehicle: saline) 1 of 6; (dose: 170.0 mg/kg/injection, schedule: Q04DX003 (ip), vehicle: saline) 0 of 6; under setting [5], 1 of 6; under setting [3], 0 of 6.

Take `C[n+]1c(-c2ccc(Cl)cc2Cl)c2cc(N)ccc2c2ccccc21`: the survivor count is 6 of 6 (dose: 50.0 mg/kg/injection, schedule: Q01DX009 (ip), vehicle: water); 3 of 6 (dose: 50.0 mg/kg/injection, schedule: Q04DX003 (ip), vehicle: water); 3 of 6 under setting [6]; 1 of 6 under setting [7]; 0 of 6 under setting [8].

Turning to `CC(C)(C)c1ccc(SCCN=C(N)CSS(=O)(=O)O)cc1`, the survivor count is reported as 0 of 3 (dose: 12.5 mg/kg/injection, schedule: Q01DX009 (ip), vehicle: Klucel (hydroxypropylcellulose) (HPC)); 0 of 3 (dose: 25.0 mg/kg/injection, schedule: Q04DX002 (ip), vehicle: Klucel (hydroxypropylcellulose) (HPC)); 0 of 3 (dose: 50.0 mg/kg/injection, schedule: Q04DX002 (ip), vehicle: Klucel (hydroxypropylcellulose) (HPC)); 0 of 3 under setting [9]; 0 of 3 under setting [10]; 0 of 3 under setting [11].

`C[CH2][Pb]([CH2]C)([CH2]C)[N]1C(=O)c2ccccc2C1=O`: the survivor count runs as follows: under setting [9], 1 of 3; under setting [10], 0 of 3; under setting [11], 0 of 3.

With `COC1C(OC(=O)/C=C/C=C/C=C/C=C/C(=O)O)CCC2(CO2)C1C1(C)OC1CC=C(C)C` (stereo not drawn), the T/C (dose: 80.0 mg/kg/injection, schedule: Q01DX Z (ip), vehicle: methylcellulose (MC)) was 125 % of control. In addition, the survivor count under setting [3] is on record as 0 of 6.

In the case of `CSc1nnc2scnn12`, the survivor count (dose: 400.0 mg/kg/injection, schedule: Q01DX001 (ip), vehicle: carboxymethylcellulose (CMC)) was 0 of 4.

Consider `COc1cc(C(C)=O)cc([N+](=O)[O-])c1O`, for which the survivor count under setting [12] is given as 1 of 6.

Consider `CC1C(C(=O)c2ccc(-c3ccccc3)cc2)N1C1CCCCC1` (stereo not drawn), for which the survivor count under setting [12] is recorded as 3 of 3.

Consider `CC(C)(C)C1CCC(NC2=NCCO2)CC1` (stereo not drawn), for which the survivor count is on record as 0 of 6 (dose: 200.0 mg/kg/injection, schedule: Q01DX001 (ip), vehicle: Klucel (hydroxypropylcellulose) (HPC)); 1 of 6 (dose: 200.0 mg/kg/injection, schedule: Q04DX003 (ip), vehicle: Klucel (hydroxypropylcellulose) (HPC)); 0 of 6 (dose: 400.0 mg/kg/injection, schedule: Q01DX001 (ip), vehicle: Klucel (hydroxypropylcellulose) (HPC)).

For the compound `COC1=C(Br)C(=O)C(Br)=C(OC)C1=O`, where the note is “dose: 400.0 mg/kg/injection, schedule: Q04DX002 (ip), vehicle: other”, the survivor count is listed as 0 of 3.

As to `C=CC[N+](CC=C)(CC=C)CCC[N+](CC=C)(CC=C)CC=C`, the survivor count (dose: 100.0 mg/kg/injection, schedule: Q01DX009 (ip), vehicle: water) is given as 0 of 6; the survivor count under setting [6] was 2 of 6; the survivor count under setting [7] is given as 0 of 6; the survivor count under setting [8] is listed as 0 of 6.

For the compound `CCCCC(=O)NC1=CC(=O)c2ccccc2C1=O`, the survivor count under setting [13] is 2 of 6.

On to `CC(=O)OC1COC(NC(=O)N(CCCl)N=O)C(OC(C)=O)C1OC(C)=O` (stereo not drawn), for which the T/C (dose: 6.0 mg/kg/injection, schedule: Q01DX001 (ip), vehicle: saline with Tween-80) was 146 % of control. Further, the survivor count is 10 of 10 (dose: 45.0 mg/kg/injection, schedule: Q01DX001 (ip), vehicle: saline with Tween-80); 9 of 10 (dose: 67.0 mg/kg/injection, schedule: Q01DX001 (ip), vehicle: saline with Tween-80); 9 of 10 (dose: 100.0 mg/kg/injection, schedule: Q01DX001 (ip), vehicle: saline with Tween-80).

In the case of `Nc1cc(Cl)cc2c1-c1c(Cl)cc(Cl)cc1C2=O`, the survivor count by setting is: under setting [2], 3 of 6; (dose: 400.0 mg/kg/injection, schedule: Q04DX003 (ip), vehicle: Klucel (hydroxypropylcellulose) (HPC)) 1 of 6.

Regarding `CCc1ccc(N)cc1`, the survivor count runs as follows: (dose: 75.0 mg/kg/injection, schedule: Q01DX001 (ip), vehicle: saline) 2 of 6; (dose: 150.0 mg/kg/injection, schedule: Q01DX001 (ip), vehicle: saline) 0 of 6; under setting [13], 0 of 6.

For the compound `CCCCC(c1nc2c(c3c1CCCC3)CCCC2)C(O)(C(F)(F)F)C(F)(F)F` (stereo not drawn), the survivor count under setting [14] was 4 of 6.

Consider `N#CCCCOc1cccc([N+](=O)[O-])c1`, for which the survivor count under setting [14] was 1 of 6.

Turning to `N#CC1(NC(=O)CCl)CCCCC1`, the survivor count (dose: 400.0 mg/kg/injection, schedule: Q01DX001 (ip), vehicle: other) is on record as 0 of 4.

Regarding `CCC[CH2][Sn]1([CH2]CCC)[O]c2ccccc2[O]1`, the survivor count is 2 of 3 (dose: 12.5 mg/kg/injection, schedule: Q04DX002 (ip), vehicle: saline with Tween-80); 2 of 3 (dose: 25.0 mg/kg/injection, schedule: Q04DX002 (ip), vehicle: saline with Tween-80); 0 of 3 (dose: 50.0 mg/kg/injection, schedule: Q04DX002 (ip), vehicle: saline with Tween-80); 0 of 3 (dose: 100.0 mg/kg/injection, schedule: Q04DX002 (ip), vehicle: saline with Tween-80); 0 of 3 (dose: 200.0 mg/kg/injection, schedule: Q04DX002 (ip), vehicle: saline with Tween-80); 0 of 3 under setting [4].

Regarding `CCCCNC(C)(C)C(SSSC(c1ccco1)C(C)(C)NCCCC)c1ccco1` (stereo not drawn), the survivor count (dose: 200.0 mg/kg/injection, schedule: Q01DX009 (ip), vehicle: saline with Tween-80) is given as 0 of 6 and the survivor count (dose: 400.0 mg/kg/injection, schedule: Q04DX003 (ip), vehicle: saline) is 0 of 6.

Take `O=C1OC(c2ccccc2)=N/C1=C1\OC(=O)c2ccccc21`: the survivor count is listed as 6 of 6 (dose: 100.0 mg/kg/injection, schedule: Q01DX009 (ip), vehicle: Klucel (hydroxypropylcellulose) (HPC)) and 5 of 6 under setting [1].

For `Cc1cc(C)c(O)c(CN(C)C)c1.[Cu+2]`, the survivor count is, setting by setting: under setting [5], 0 of 4; under setting [3], 0 of 4.
